{"source": "patent US4678775A", "about": "“Method of controlling pests” (priority 1984, dated 1987)", "note": "At least one structure is not confirmed: it was looked up by name or label, or the drawing left a doubt."}
{"test_system": "octopamine-sensitive adenylate cyclase", "test": "Activation of octopamine-sensitive adenylate cyclase, firefly light organ broken cell preparation", "type": "biochemical, Photinus pyralis", "conditions": "Table 1; ratio greater than 1 = better than (±)-p-octopamine"}
{"smiles": "NCC(O)c1ccccc1", "note": "(racemic) [(±)-phenylethanolamine, reference compound]", "Ka^oct/Ka^(1) ratio (column head is drawing 15)": 0.11}
{"smiles": "NCC(O)c1ccc(Cl)cc1Cl", "note": "(stereo not drawn) [2,4-dichlorophenylethanolamine]", "Ka^oct/Ka^(1) ratio (column head is drawing 15)": 0.67}
{"smiles": "NCC(O)c1ccc(F)cc1", "note": "(stereo not drawn) [p-fluoro-phenylethanolamine]", "Ka^oct/Ka^(1) ratio (column head is drawing 15)": 0.11}
